{"source": "patent US9901616", "about": "(dated 2018)", "assay": "general procedure: peptide synthesis; glycine (G) based resin", "settings": "conjugation step", "data": [{"substance": "PLGA-b-PEG-LIKKPF", "values": [{"measurement": "conjugation yield", "result": "95%-55%"}]}]}
